Test system: transient MCAo in rats
Assay: Transient MCAo evaluated by the staircase test
Assay type: in vivo, Sprague Dawley rats
Settings: mild food deprivation
Description: The test challenges fine motor, sensory and stereognostic function of the cortex in enabling the forepaw (hand) to identify, grasp and accurately manipulate small objects such as food pellets. Loss of the ability to identify, grasp and manipulate small objects reflects a lesion of the fronto-parietal cortex and is a common and crippling deficit after stroke in humans.
The materials for this procedure are identical to those from Physiological Example 5, except for the different concentrations of PRS-211,095. The procedural differences are as follows: • Male Sprague Dawley rats, 230–270 gr (Harlan, Israel) were used. The following compounds and their respective concentrations were tested:
Dexanabinol and analogs PRS-211,095 and PRS-211,220 in PEG ethanol cosolvent 50 mg/ml. Dexanabinol, the analogs and their vehicle were diluted in Intralipid® 20% (Pharmacia) prior to drug administration.
The procedure is essentially as described in Montoya et al. (Montoya, Campbell-Hope, Pemberton and Dunnet, J. Neurosci. Meth. 36:219–228,1991) Animals were kept under mild food deprivation for 3–5 days, receiving 15-gr. food once a day (between 16:00 and 17:00) and free access to water.
In brief, the staircase box contains two rows of seven stairs in each. Two 45 mg food pellets were placed on each step. Animals were placed in the box for 15 minutes sessions. At the end of the session the number of eaten (grasped) and displaced pellets was counted and recorded. Animals were tested twice a day, 4 hours apart. The first session was performed between 8–9 AM and second between 12–13 PM. The animals were trained until they grasped (ate) at least 8 pellets from each set of stairs for two consecutive sessions. Up to one week after the end of the successful training session the animals underwent transient MCAo.
Transient MCAO was performed in essentially the same manner as described in Physiological example 5 with the following modification at step i:
Two minutes prior to thread removal rats were re-anesthetized and administered IV with Dexanabinol 5 mg/kg, analogs
PRS-211,220 or PRS-211,095 at 0.5, 2.5, 5 or 10 mg/kg or vehicle 5 ml/kg. One additional group was sham-treated.
Animals were allowed to recover from the surgery for five days. The mild food deprivation was re-employed during the days following the ischemic insult. They were tested in the staircase box using the above method for 9–12 days. Animals were weighed twice a week during this period.
At the end of the evaluation period, animals were euthanized with pentobarbitone 100 mg/kg IP. The animals were perfused through the heart with heparinized 4% formaldehyde solution in PBS (pH 7.4). Brains were then removed, and kept in the same solution for at least 24h. Then the brains—from the rostral side of the cortex to the cerebellum—were sunk in 30% sucrose in PBS, cryosectioned (20 μm), dried and stained with thionin for histological evaluation of the brain infarct volume. Eight sections at the levels of: 3.3;+2.8;+1.8; +0.8; −0.4;−1.4; −2.2; and −3.4 from Bregma were measured (Swanson, Rat Brain Atlas, 1992). Sections were captured by a CCD camera (V-tech MP-470) and image analyzed (Scion image 1.62A). Infarct size was determined from the series of the 8 sections by either calculation of the infarct volume (mm3) by summing the series of mean lesion areas of two adjacent sections multiplied by the distance between them or calculation of the mean infarct size as percentage of the contralateral hemisphere size; calculation of the mean of the surviving ipsilateral side as percentage of the contralateral hemisphere size; calculation of the mean ipsilateral side ventricle as percentage of the contralateral hemisphere ventricle.
• a. The infarct size was compared using ANOVA (analysis of variance) followed by Duncan's post hoc test. • b. The staircase task performance was evaluated after collecting the data and compressing it into four blocks of six trials: […]

Row | SMILES | body weight gain compared to base line (0.1 mg/kg) [%] | body weight gain compared to base line (0.5 mg/kg) | body weight gain compared to base line (2.5 mg/kg) | body weight gain compared to base line (5 mg/kg) [%] | body weight gain compared to base line (10 mg/kg) [%]
1 | CCCCCCC(C)(C)c1cc(O)c2c(c1)OC(C)(C)[C@H]1CC=C(Cn3cccn3)C[C@H]21 [211,220-000, (+)-(3S,4S)-6,6-Dimethyl-(1,1-dimethylheptyl)-1-hydroxy-9-(pyrazolomethyl)-6a,7,10,10a-tetrahydro-6H-dibenzo[b,d]pyran] | 3 | 10% | 5% | 4 | 
2 | CCCCCCC(C)(C)c1cc(O)c2c(c1)OC(C)(C)[C@H]1CC=C(CO)CC21 (stereo partly drawn) [211,007-000, 1,1 dimethyl heptyl-(3S,4S)-7-hydroxy-Δ^6-tetrahydrocannabinol, reference compound] |  |  |  | 7 | 
3 | CCCCCCC(C)(C)c1cc(O)c2c(c1)OC(C)(C)C1CC=C(Cn3ccnc3)CC21.Cl (single isomer, unassigned; (+)) [211,095-000, (+)-(3S ,4S )-6,6-Dimethyl-(1,1-dimethylheptyl)-1-hydroxy-9-(imidazolomethyl)-6a,7,10,10a-tetrahydro-6H-dibenzo[b,d]pyran] |  | did not gain weight | did not gain weight | 4 | 17

— patent US7235584B2, “Non-psychotropic cannabinoids” (Pharmos Corporation, priority 2000, dated 2007)
